Measurements reported in patent US20260200905A1, “MICROBIOCIDAL TETRAHYDROISOQUINOLINE DERIVATIVES” (SYNGENTA CROP PROTECTION AG, priority 2022, published 2026).
Some of these results come from one statement about several compounds together.

Each compound was assayed on Botryotinia fuckeliana (Botrytis cinerea) (assay: Botryotinia fuckeliana (Botrytis cinerea) / liquid culture (gray mould)). Settings: 20 ppm, growth inhibition photometrically 3 to 4 days after application.
Assay type: cell-based

Structure (SMILES) | control of Botryotinia fuckeliana
O=C(c1cc(-c2ccccc2)on1)N1Cc2ccccc2C(c2cccnc2)C1 (stereo not drawn) [Compound P-6, (5-phenylisoxazol-3-yl)-[4-(3-pyridyl)-3,4-dihydro-1H-isoquinolin-2-yl]methanone] | at least 80%
O=C(c1cc(-c2ccc(F)cc2F)on1)N1Cc2c(F)cccc2C(c2cccnc2)C1 (stereo not drawn) [Compound P-1, [5-(2,4-difluorophenyl)isoxazol-3-yl]-[8-fluoro-4-(3-pyridyl)-3,4-dihydro-1H-isoquinolin-2-yl]methanone] | at least 80%

These compounds were tested on Glomerella lagenarium (Colletotrichum lagenarium) (assay: Glomerella lagenarium (Colletotrichum lagenarium) / liquid culture (anthracnose)). Settings: 20 ppm, growth inhibition photometrically 3 to 4 days after application.
Assay type: cell-based

Structure (SMILES) | control of Glomerella lagenarium
O=C(c1cc(-c2ccc(F)cc2F)on1)N1Cc2ccccc2C(c2ccncc2)C1 (stereo not drawn) [Compound P-2, [5-(2,4-difluorophenyl)isoxazol-3-yl]-4-[4-(4-pyridyl)-3,4-dihydro-1H-isoquinolin-2-yl]methanone] | at least 80%
Cc1ccc(C2CN(C(=O)c3cc(-c4ccc(F)cc4F)on3)Cc3ccccc32)cn1 (stereo not drawn) [Compound P-3, [5-(2,4-difluorophenyl)isoxazol-3-yl]-[4-(6-methyl-3-pyridyl)-3,4-dihydro-1H-isoquinolin-2-yl]methanone] | at least 80%
O=C(c1cc(-c2ccc(F)cc2F)on1)N1Cc2ccccc2C(c2cncnc2)C1 (stereo not drawn) [Compound P-4, [5-(2,4-difluorophenyl)isoxazol-3-yl]-(4-pyrimidin-5-yl-3,4-dihydro-1H-isoquinolin-2-yl)methanone] | at least 80%
O=C(c1cc(-c2ccc(F)cc2F)on1)N1Cc2c(F)cccc2C(c2cccnc2)C1 (stereo not drawn) [Compound P-1, [5-(2,4-difluorophenyl)isoxazol-3-yl]-[8-fluoro-4-(3-pyridyl)-3,4-dihydro-1H-isoquinolin-2-yl]methanone] | at least 80%
O=C(c1cc(-c2ccc(F)cc2F)on1)N1Cc2ccccc2C(c2cccnc2)C1 (stereo not drawn) [Compound P-5, [5-(2,4-difluorophenyl)isoxazol-3-yl]-[4-(3-pyridyl)-3,4-dihydro-1H-isoquinolin-2-yl]methanone] | at least 80%

What follows are compounds tested on Alternaria solani (assay: Alternaria solani / tomato / leaf disc (early blight)). Settings: 200 ppm; tomato leaf disks, preventative, compared to untreated control.
Assay type: in vivo

Structure (SMILES) | control of Alternaria solani
Cc1ncccc1C1CN(C(=O)c2cc(-c3ccc(F)cc3F)on2)Cc2ccccc21 (stereo not drawn) [Compound P-13, [5-(2,4-difluorophenyl)isoxazol-3-yl]-[4-(2-methyl-3-pyridyl)-3,4-dihydro-1H-isoquinolin-2-yl]methanone] | at least 80%
Cn1cc(C2CN(C(=O)c3cc(-c4ccc(F)cc4F)on3)Cc3ccccc32)nn1 (stereo not drawn) [Compound P-35, [5-(2,4-difluorophenyl)isoxazol-3-yl]-[4-(1-methyltriazol-4-yl)-3,4-dihydro-1H-isoquinolin-2-yl]methanone] | at least 80%
